# Assay results: PubChem BioAssay AID445 (National Center for Advancing Translational Sciences (NCATS), 2006)
# This is one part of the list. Shown are side measurements of this screen, not its main read-out; they come without a call. Most of these compounds were active or inconclusive in the main read-out, so they are no random draw. Potencies come from curve fits of mixed quality, noted in brackets.
# Test: IkB Signaling
# Conditions: ABC-DLBCL IkBa-CBG/CBR dual luciferase ratio (green luciferase fused to IkBa over red control in OCI-Ly3 lymphoma cells), 4 h
# In short: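 In this assay, an IκBα–CBG68 fusion accumulates when IKK-driven degradation is blocked; native CBR normalizes for cell number. OCI-Ly3 cells were treated 4 h with compound and doxycycline, then green and red light read after Chroma-Glo addition.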
# [1] = measured here: control luc red channel unless noted
smiles,measurement,setting,value
COc1ccc(OC)c(NC(=O)c2oc(=O)c3ccccc3c2-c2ccccc2)c1,AC50,[1],"31.6 µM [falling, single point]"
COc1ccc(CC(=O)N2CCc3cc(OC)c(OC)cc3C2COc2ccc(F)cc2)cc1 (configuration not stated),AC50,[1],"39.8 µM [falling, single point]"
Cn1nc(-c2ccccc2F)c2cc(C(=O)NCc3ccccc3Cl)sc21,AC50,[1],"12.6 µM [falling, partial curve]"
COc1ccc(N2CCN(S(=O)(=O)c3ccc(F)c(C(=O)Nc4ccccc4Cl)c3)CC2)cc1,AC50,[1],"2 µM [falling, partial curve]"
CCOc1ccc(NCc2cccn2-c2nnc(N3CCC(C(=O)NCc4ccccc4Cl)CC3)s2)cc1,AC50,[1],"15.8 µM [falling, partial curve, poor fit]"
CC(C)(C)OC(=O)N1CCC(c2c(C(=O)NCc3cccs3)cnn2-c2cccc(F)c2)CC1,AC50,[1],"20 µM [falling, partial curve]"
COc1ccc(C(=O)Nc2nncs2)cc1S(=O)(=O)N1CC(c2ccccc2)CC1=O (configuration not stated),AC50,[1],"3.98 µM [falling, full curve]"
CC(C)COc1cccc(C(=O)Nc2ccc(S(=O)(=O)N3CCOCC3)cc2)c1,AC50,[1],"20 µM [falling, partial curve]"
CCN(CC)S(=O)(=O)c1cccc(C(=O)Nc2ccccc2C(=O)Nc2ccc(Cl)cc2)c1,AC50,[1],"20 µM [falling, partial curve]"
CC(=O)c1ccc(NC(=O)c2cc(C)nn2-c2ccccc2)cc1,AC50,[1],"39.8 µM [falling, single point]"
COCCN(CCOC)S(=O)(=O)c1ccc(C(=O)Nc2sc3c(c2C(=O)OC)CCN(C)C3)cc1,AC50,[1],"3.16 µM [falling, partial curve, poor fit]"
CCOc1cccc(C(=O)Nc2ccc(-c3nc4ncccc4o3)cc2C)c1,AC50,[1],"0.0398 µM [falling, full curve, poor fit]"
CCCCN(CCCNC(=O)c1cc(Nc2cccc(SC)c2)nc2ccccc12)Cc1ccccc1,AC50,[1],"5.01 µM [falling, full curve]"
CN(C)S(=O)(=O)N(CC(=O)NCCSCc1c(F)cccc1Cl)c1ccccc1,AC50,[1],"15.8 µM [falling, partial curve]"
CCCN1CCN(CCCNC(=O)c2cc3c(=O)n(CC)c4ccccc4c3s2)CC1,AC50,[1],"7.94 µM [falling, partial curve]"
CCOC(=O)N1CCc2c(sc3c2C(=O)NC(c2ccc(N(C)C)cc2)N3)C1 (configuration not stated),AC50,[1],"3.16 µM [rising, full curve]"
Brc1ccc(-c2nc(-c3ccccn3)no2)o1,AC50,[1],"10 µM [falling, partial curve]"
O=Nc1ccc2oc(=O)ccc2c1,AC50,measured here: IkB-luc green channel,"31.6 µM [falling, partial curve, poor fit]"
same,AC50,measured here: control luc red channel,"10 µM [falling, partial curve]"
CC(=O)Nc1ccc(/C=C/c2noc(-c3ccccc3O)n2)cc1,AC50,[1],"39.8 µM [falling, single point]"
CCc1nnc(NC(=O)c2cc(=O)c3cc(C)ccc3o2)s1,AC50,[1],"0.398 µM [rising, full curve, poor fit]"
CCC(C)(C)NC(=O)C(c1cccn1C)N(C(=O)Cn1nnc2ccccc21)c1ccc(OC)cc1 (configuration not stated),AC50,[1],"31.6 µM [falling, partial curve]"
Cc1ccc(C)c(N2CCN(C(=O)Cn3cnc4onc(-c5ccc(F)cc5)c4c3=O)CC2)c1,AC50,[1],"12.6 µM [falling, partial curve]"
Cc1ccc(S(=O)(=O)CC(=O)Nc2nc3c(C)cc(C)cc3s2)cc1,AC50,[1],"31.6 µM [falling, partial curve]"
Cc1ccc(NC(=O)Nc2ccc(F)cc2)nc1,AC50,[1],"15.8 µM [falling, single point]"
COc1cccc(NC(=O)c2cccc3c(=O)c4c([nH]c23)CCCC4)c1,AC50,[1],"0.01 µM [rising, full curve]"
NC(=O)C1(N2CCCCC2)CCN(C(=O)c2ccc(C#Cc3ccccc3)o2)CC1,AC50,[1],"15.8 µM [falling, partial curve]"
CCOc1ccc(OCC)c(NC(=O)c2cc(S(=O)(=O)N3CCc4ccccc43)cn2C)c1,AC50,[1],"10 µM [falling, partial curve]"
O=C(CSc1nnc(-c2cccnc2)n1Cc1ccco1)c1ccc(Br)cc1,AC50,[1],"15.8 µM [falling, partial curve]"
Cc1cc(C)cc(NC(=O)C(Cc2ccccc2)NS(=O)(=O)c2ccc3c(c2)CCC(=O)N3)c1 (configuration not stated),AC50,[1],"31.6 µM [falling, partial curve, poor fit]"
CCOc1ccccc1NC(=O)C(=O)Nc1ccc2nc3n(c(=O)c2c1)CCCCC3,AC50,[1],"2 µM [falling, full curve]"
CCOC(=O)C1(C)C=C(Nc2cccc(C(=O)O)c2)C(=O)N1c1ccccc1 (configuration not stated),AC50,[1],"2.51 µM [falling, partial curve]"
Cc1ccc(CNC(=O)C(=O)NCC(c2ccc3c(c2)OCO3)N2CCOCC2)cc1 (configuration not stated),AC50,[1],"20 µM [falling, partial curve, poor fit]"
COc1ccccc1N1CCN(C(=O)C2CCCN(S(=O)(=O)c3ccc4c(c3)CCCN4C(C)=O)C2)CC1 (configuration not stated),AC50,[1],"39.8 µM [falling, single point]"
Cn1nc(CC(=O)Nc2ccc(N3CCN(C(=O)OC(C)(C)C)CC3)cc2)c2ccccc2c1=O,AC50,[1],"6.31 µM [falling, partial curve]"
COc1cc(Cl)c(C)cc1NC(=O)c1cnc(N2CCCCC2)c2ccccc12,AC50,[1],"20 µM [falling, partial curve]"
CC(C)Cn1c(-c2cccc(Br)c2)nc2ccccc21,AC50,[1],"25.1 µM [falling, single point]"
O=C(CSc1nc(-c2cccc(F)c2)[nH]c1-c1ccccc1)Nc1ccc2c(c1)OCO2,AC50,[1],"15.8 µM [falling, partial curve]"
COc1ccc(-n2c(Cc3cccn3C)nnc2SCC(=O)Nc2ccc(C)cc2)cc1,AC50,[1],"20 µM [falling, partial curve]"
Cc1ccc(-n2ncc(C(=O)NCc3ccco3)c2C2CCN(C(=O)OC(C)(C)C)CC2)cc1C,AC50,[1],"0.0316 µM [falling, full curve, poor fit]"
CC(C)(C)CC(=O)Nc1nnc(-c2cccs2)s1,AC50,[1],"0.00794 µM [rising, full curve]"
Cc1cc(N2CCCCC2)nc(SCC(=O)c2ccccc2)n1,AC50,[1],"31.6 µM [falling, single point]"
COc1ccc(OC)c(NS(=O)(=O)c2ccc(NC(=O)C3COc4ccccc4O3)cc2)c1 (configuration not stated),AC50,[1],"3.98 µM [falling, partial curve]"
O=C(Nc1sc2c(c1C(=O)NCc1cccnc1)CCCC2)c1ccco1,AC50,[1],"12.6 µM [falling, partial curve]"
CCCCCCOc1ccc(C2C(=O)N(C3CCCCC3)CC(=O)N2C2CCCCC2)cc1 (configuration not stated),AC50,[1],"39.8 µM [falling, single point]"
CCN(CC)S(=O)(=O)c1ccc(C(=O)NCCSc2c(-c3ccccc3)[nH]c3ccccc23)cc1,AC50,[1],"10 µM [falling, partial curve, poor fit]"
CC1CCN(Cc2nc(-c3ccccc3)no2)CC1,AC50,[1],"2 µM [rising, partial curve]"
Cc1c(C(=O)NCc2cccnc2)sc2nc(-c3ccc(F)cc3)cn12,AC50,[1],"20 µM [falling, partial curve]"
COc1cc(NC(=O)CSc2c3c(nc4ccccc24)CCC3)cc(OC)c1OC,AC50,[1],"3.98 µM [falling, full curve]"
COc1ccc(N(C)S(=O)(=O)c2cccc(C(=O)Nc3ccc(-n4cnnn4)cc3)c2)cc1,AC50,[1],"20 µM [falling, partial curve]"
O=C1CC(Sc2nnc(-c3ccccc3O)o2)C(=O)N1c1ccccc1 (configuration not stated),AC50,[1],"15.8 µM [falling, partial curve]"
CC1CCN(c2ccc(-c3cccc(NS(=O)(=O)c4ccc(F)cc4F)c3)nn2)CC1,AC50,[1],"7.94 µM [falling, partial curve]"
CCOC(=O)c1sc(NC(=O)c2c(-c3ccccc3)c(-c3ccccc3)nn(C)c2=O)nc1C,AC50,[1],"25.1 µM [falling, partial curve]"
CC1CCN(C(=O)CSc2nc(-c3ccc(F)cc3)cc(C(F)(F)F)n2)CC1,AC50,[1],"5.01 µM [falling, full curve, poor fit]"
COc1ccc2[nH]cc(CCNc3cc(-c4cccc(C#N)c4)ncn3)c2c1,AC50,[1],"3.16 µM [falling, partial curve] [measured here: IkB-luc green channel]"
CCc1ccc(Nc2nc3ccccc3nc2NS(=O)(=O)c2ccccc2)cc1,AC50,[1],"6.31 µM [falling, partial curve]"
Cc1ccc(NC(=O)/C=C/c2ccccc2Cl)cc1Cl,AC50,[1],"0.00794 µM [rising, full curve, poor fit]"
Cc1cc2c(cc1S(=O)(=O)Nc1cc(C(F)(F)F)cc(C(F)(F)F)c1)OCC(=O)N2,AC50,[1],"15.8 µM [falling, partial curve]"
O=C(Cn1c(=O)nc(-c2ccccc2)c2ccccc21)Nc1ccc(Cl)cc1F,AC50,[1],"0.398 µM [falling, full curve, poor fit]"
CCCCOC(=O)c1ccc(NC(=O)c2sc3nc(C)cc(C)c3c2N)cc1,AC50,[1],"0.126 µM [falling, full curve]"
COc1ccc(N(C)C(=O)Cn2cc(S(=O)(=O)N3CCN(c4ccccc4F)CC3)c3ccccc3c2=O)c(OC)c1,AC50,[1],"10 µM [falling, partial curve]"
COc1ccc(NC2=C(c3ccc(C(F)(F)F)cc3)C(=O)c3ccccc32)cc1,AC50,[1],"20 µM [falling, single point]"

# Reformatted with tabs: part of the list above
smiles	measurement	setting	value
CCC(C)(C)NC(=O)C(c1cccn1C)N(C(=O)Cn1nnc2ccccc21)c1ccc(OC)cc1 (configuration not stated)	AC50	[1]	31.6 µM [falling, partial curve]
Cc1ccc(C)c(N2CCN(C(=O)Cn3cnc4onc(-c5ccc(F)cc5)c4c3=O)CC2)c1	AC50	[1]	12.6 µM [falling, partial curve]
Cc1ccc(S(=O)(=O)CC(=O)Nc2nc3c(C)cc(C)cc3s2)cc1	AC50	[1]	31.6 µM [falling, partial curve]
Cc1ccc(NC(=O)Nc2ccc(F)cc2)nc1	AC50	[1]	15.8 µM [falling, single point]
COc1cccc(NC(=O)c2cccc3c(=O)c4c([nH]c23)CCCC4)c1	AC50	[1]	0.01 µM [rising, full curve]
NC(=O)C1(N2CCCCC2)CCN(C(=O)c2ccc(C#Cc3ccccc3)o2)CC1	AC50	[1]	15.8 µM [falling, partial curve]
CCOc1ccc(OCC)c(NC(=O)c2cc(S(=O)(=O)N3CCc4ccccc43)cn2C)c1	AC50	[1]	10 µM [falling, partial curve]
O=C(CSc1nnc(-c2cccnc2)n1Cc1ccco1)c1ccc(Br)cc1	AC50	[1]	15.8 µM [falling, partial curve]
Cc1cc(C)cc(NC(=O)C(Cc2ccccc2)NS(=O)(=O)c2ccc3c(c2)CCC(=O)N3)c1 (configuration not stated)	AC50	[1]	31.6 µM [falling, partial curve, poor fit]
CCOc1ccccc1NC(=O)C(=O)Nc1ccc2nc3n(c(=O)c2c1)CCCCC3	AC50	[1]	2 µM [falling, full curve]
CCOC(=O)C1(C)C=C(Nc2cccc(C(=O)O)c2)C(=O)N1c1ccccc1 (configuration not stated)	AC50	[1]	2.51 µM [falling, partial curve]
Cc1ccc(CNC(=O)C(=O)NCC(c2ccc3c(c2)OCO3)N2CCOCC2)cc1 (configuration not stated)	AC50	[1]	20 µM [falling, partial curve, poor fit]
